PubChem BioAssay AID1259267 – Sanger Institute – 2017
The whole screen tested 794 reagents; below is a random part of them. 9 of them (1.1%) were called active. 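Viability capped at 1; calls reflect loss of viability from knock-down alone, not synergy with drugs.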 Not stated in the record: the amount of reagent, the time to read-out.

Aim: 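Which kinases and bowel-cancer genes GP5D cells need, with or without anchor drugs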 (primary screen)
Cells: human GP5D colorectal cancer cells
Reagents: siRNA pool against human genes
Treatment: anchor drugs at low dose: BYL719 1 µM, cetuximab 5 µg/ml, trametinib 10 nM, or DMSO vehicle
Measurement: 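Mean replicate viability versus non-targeting pool, given as knock-down-alone robust z-score, DMSO fraction, and synergy with low-dose BYL719, cetuximab or trametinib (1 µM, 5 µg/ml, 10 nM)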
Direction: robust z-score, knock-down alone and viability with DMSO: higher = more viable cells; synergy score with trametinib and synergy score with BYL719 and synergy score with cetuximab: higher = stronger synthetic lethal synergy with drug
Call rule: 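Active (essential alone) if knock-down without drug gives robust z-score under -3; drug synergy does not count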
Meaning of the calls: active = essential alone; inactive = not essential

gene knocked down	robust z-score, knock-down alone	viability with DMSO (fraction of control)	synergy score with trametinib	synergy score with BYL719	synergy score with cetuximab	activity call
FGFR1 (GeneID 2260)	-0.512	0.718	0.231	-0.0354	0.183	inactive
ULK1 (GeneID 8408)	0.817	1	0.059	-0.0699	-0.122	inactive
MAPK8 (GeneID 5599)	0.817	1	0.0314	-0.0881	-0.142	inactive
CAMK1G (GeneID 57172)	0.817	1	-0.197	-0.158	-0.132	inactive
BRWD1 (GeneID 54014)	-0.331	0.757	0.198	-0.0604	0.0107	inactive
CKMT2 (GeneID 1160)	0.817	1	-0.163	-0.179	-0.142	inactive
STK39 (GeneID 27347)	-3.32	0.123	-0.0981	-0.282	-0.13	active
CDC42BPA (GeneID 8476)	-1.82	0.44	-0.0253	-0.221	-0.00562	inactive
DGKQ (GeneID 1609)	0.215	0.872	0.238	0.00724	0.0948	inactive
CDADC1 (GeneID 81602)	-0.464	0.729	-0.119	-0.169	-0.0308	inactive
CHD9 (GeneID 80205)	0.817	1	-0.0946	-0.147	-0.0551	inactive
MAP2K2 (GeneID 5605)	0.817	1	0.0184	-0.126	-0.142	inactive
MAPK4 (GeneID 5596)	0.817	1	0.376	0.0877	0.0859	inactive
YES1 (GeneID 7525)	0.817	1	-0.152	-0.291	-0.142	inactive
NUP62 (GeneID 23636)	-2.13	0.376	0.0652	-0.328	0.0391	inactive
SRGAP3 (GeneID 9901)	0.817	1	-0.144	-0.315	-0.142	inactive
DTYMK (GeneID 1841)	-0.176	0.789	-0.13	-0.108	-0.189	inactive
CSNK1G2 (GeneID 1455)	-0.0912	0.808	0.141	-0.152	-0.149	inactive
STK33 (GeneID 65975)	0.817	1	0.0257	0.0829	0.159	inactive
RIPK1 (GeneID 8737)	-1.01	0.613	-0.0956	-0.242	-0.227	inactive
PACSIN1 (GeneID 29993)	0.817	1	0.00773	-0.125	-0.142	inactive
ROCK1 (GeneID 6093)	0.817	1	-0.197	-0.225	-0.142	inactive
CHKB (GeneID 1120)	0.817	1	-0.109	-0.246	-0.142	inactive
PI4K2A (GeneID 55361)	-0.952	0.625	-0.498	-0.506	-0.258	inactive
MAP3K6 (GeneID 9064)	0.817	1	0.177	0.0425	0.211	inactive
TTK (GeneID 7272)	0.0347	0.834	0.131	-0.209	-0.0766	inactive
TLK2 (GeneID 11011)	0.377	0.907	-0.227	-0.213	-0.0472	inactive
NME4 (GeneID 4833)	-0.683	0.682	-0.348	-0.418	-0.351	inactive
CIT (GeneID 11113)	0.817	1	0.208	-0.00983	0.171	inactive
AK3 (GeneID 50808)	-0.3	0.763	0.182	-0.0599	-0.175	inactive
ADK (GeneID 132)	0.817	1	0.162	-0.00571	-0.0376	inactive
HUS1 (GeneID 3364)	-0.249	0.774	0.26	-0.216	0.0522	inactive
FOXP1 (GeneID 27086)	0.55	0.943	0.302	0.193	0.0561	inactive
ETNK2 (GeneID 55224)	-0.436	0.735	0.0998	-0.0269	0.0249	inactive
PKMYT1 (GeneID 9088)	0.412	0.914	-0.13	-0.178	-0.19	inactive
NTRK3 (GeneID 4916)	-1.19	0.576	-0.22	-0.439	-0.198	inactive
COMMD3 (GeneID 23412)	0.41	0.914	0.0959	-0.0604	0.0407	inactive
BTK (GeneID 695)	0.729	0.981	-0.0709	-0.206	-0.158	inactive
BMX (GeneID 660)	0.705	0.976	0.0107	-0.106	-0.0591	inactive
HUNK (GeneID 30811)	-2.63	0.269	-0.193	-0.06	0.048	inactive
GUCY2F (GeneID 2986)	0.817	1	0.167	0.118	-0.0911	inactive
ELP1 (GeneID 8518)	-0.574	0.705	-0.186	-0.281	-0.31	inactive
CDKL2 (GeneID 8999)	0.817	1	-0.022	-0.233	-0.123	inactive
RIOK2 (GeneID 55781)	0.701	0.975	0.182	-0.184	-0.0409	inactive
EIF2AK1 (GeneID 27102)	0.664	0.967	0.207	0.0483	0.313	inactive
ALPK2 (GeneID 115701)	0.817	1	-0.0394	-0.00514	0.0531	inactive
ALPK3 (GeneID 57538)	0.817	1	-0.197	-0.277	-0.0227	inactive
PKDCC (GeneID 91461)	0.817	1	0.152	-0.0133	-0.0586	inactive
ACVR1B (GeneID 91)	0.158	0.86	0.128	-0.1	-0.0269	inactive
PDK1 (GeneID 5163)	0.817	1	-0.0933	-0.181	-0.142	inactive

Already shown: entries from further up.
gene knocked down	robust z-score, knock-down alone	viability with DMSO (fraction of control)	synergy score with trametinib	synergy score with BYL719	synergy score with cetuximab	activity call
ALPK2 (GeneID 115701)	0.817	1	-0.0394	-0.00514	0.0531	inactive
ALPK3 (GeneID 57538)	0.817	1	-0.197	-0.277	-0.0227	inactive
PKDCC (GeneID 91461)	0.817	1	0.152	-0.0133	-0.0586	inactive
